# Data reported in the supplement of paper PMC10849652.
# The chains behind the UniProt entries cited, without tags or fusion partners. Where a name states a change or a piece, a line headed by the entry shows the natural chain unless it says otherwise.
# UniProt Q96DB5: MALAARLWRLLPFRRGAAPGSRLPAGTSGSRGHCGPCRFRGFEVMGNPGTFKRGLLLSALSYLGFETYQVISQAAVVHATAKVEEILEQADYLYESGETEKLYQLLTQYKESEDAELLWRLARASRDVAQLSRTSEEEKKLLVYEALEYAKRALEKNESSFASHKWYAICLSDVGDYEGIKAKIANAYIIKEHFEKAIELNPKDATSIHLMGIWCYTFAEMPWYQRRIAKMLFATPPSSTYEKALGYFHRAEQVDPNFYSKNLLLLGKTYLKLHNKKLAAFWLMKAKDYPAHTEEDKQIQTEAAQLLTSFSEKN
# UniProt Q6NUQ1: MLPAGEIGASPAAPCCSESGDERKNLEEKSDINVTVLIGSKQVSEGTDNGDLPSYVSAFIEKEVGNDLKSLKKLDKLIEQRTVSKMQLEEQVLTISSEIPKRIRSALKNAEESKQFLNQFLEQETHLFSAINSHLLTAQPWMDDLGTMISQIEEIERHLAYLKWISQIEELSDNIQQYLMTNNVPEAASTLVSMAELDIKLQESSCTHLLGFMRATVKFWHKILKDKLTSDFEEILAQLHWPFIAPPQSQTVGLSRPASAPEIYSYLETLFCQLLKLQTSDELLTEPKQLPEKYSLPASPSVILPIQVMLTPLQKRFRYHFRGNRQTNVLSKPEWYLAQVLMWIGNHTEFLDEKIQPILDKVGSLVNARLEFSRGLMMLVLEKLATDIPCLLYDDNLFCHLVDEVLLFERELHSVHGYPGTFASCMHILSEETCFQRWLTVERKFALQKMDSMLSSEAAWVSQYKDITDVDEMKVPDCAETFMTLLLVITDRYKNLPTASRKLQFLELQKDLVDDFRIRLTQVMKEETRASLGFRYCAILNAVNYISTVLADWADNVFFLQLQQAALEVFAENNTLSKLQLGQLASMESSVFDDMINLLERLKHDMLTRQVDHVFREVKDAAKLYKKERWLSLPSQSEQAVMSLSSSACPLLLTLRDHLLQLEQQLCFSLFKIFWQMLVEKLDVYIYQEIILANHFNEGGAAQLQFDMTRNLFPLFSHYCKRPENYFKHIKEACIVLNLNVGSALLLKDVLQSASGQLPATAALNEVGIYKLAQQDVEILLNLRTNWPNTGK
# UniProt Q9BVS4: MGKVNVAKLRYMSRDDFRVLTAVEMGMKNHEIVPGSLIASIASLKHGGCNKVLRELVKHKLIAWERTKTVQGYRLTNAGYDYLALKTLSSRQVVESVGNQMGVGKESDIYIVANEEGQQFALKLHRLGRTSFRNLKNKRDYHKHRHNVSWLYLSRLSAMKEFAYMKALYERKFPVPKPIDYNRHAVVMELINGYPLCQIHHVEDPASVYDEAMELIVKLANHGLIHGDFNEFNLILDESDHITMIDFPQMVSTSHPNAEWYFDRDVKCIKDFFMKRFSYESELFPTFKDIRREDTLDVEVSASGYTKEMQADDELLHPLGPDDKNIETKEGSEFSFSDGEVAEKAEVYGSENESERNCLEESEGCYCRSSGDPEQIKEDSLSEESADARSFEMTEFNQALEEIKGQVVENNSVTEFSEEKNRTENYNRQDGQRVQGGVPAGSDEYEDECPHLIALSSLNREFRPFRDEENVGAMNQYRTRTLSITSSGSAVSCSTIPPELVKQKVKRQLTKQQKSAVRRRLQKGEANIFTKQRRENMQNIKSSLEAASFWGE
# UniProt Q9BQY4: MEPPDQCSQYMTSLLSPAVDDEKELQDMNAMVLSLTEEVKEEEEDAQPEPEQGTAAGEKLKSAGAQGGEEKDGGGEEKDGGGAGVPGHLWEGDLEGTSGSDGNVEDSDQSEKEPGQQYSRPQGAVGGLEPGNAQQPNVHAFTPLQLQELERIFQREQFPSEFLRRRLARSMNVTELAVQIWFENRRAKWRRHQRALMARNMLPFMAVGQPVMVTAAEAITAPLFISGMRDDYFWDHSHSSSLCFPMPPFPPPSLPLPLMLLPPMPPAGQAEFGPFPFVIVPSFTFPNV
# UniProt Q06587: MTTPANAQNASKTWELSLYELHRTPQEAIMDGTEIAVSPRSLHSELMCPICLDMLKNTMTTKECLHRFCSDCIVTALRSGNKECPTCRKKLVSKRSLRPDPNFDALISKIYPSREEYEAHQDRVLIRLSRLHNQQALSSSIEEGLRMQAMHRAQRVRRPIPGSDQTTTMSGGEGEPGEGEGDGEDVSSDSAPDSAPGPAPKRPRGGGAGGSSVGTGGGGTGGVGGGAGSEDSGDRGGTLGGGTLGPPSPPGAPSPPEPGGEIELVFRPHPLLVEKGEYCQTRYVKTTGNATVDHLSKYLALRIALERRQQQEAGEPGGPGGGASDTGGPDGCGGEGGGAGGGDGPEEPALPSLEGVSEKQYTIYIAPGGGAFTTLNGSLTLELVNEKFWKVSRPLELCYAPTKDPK
# UniProt O00584, whole entry, looked up: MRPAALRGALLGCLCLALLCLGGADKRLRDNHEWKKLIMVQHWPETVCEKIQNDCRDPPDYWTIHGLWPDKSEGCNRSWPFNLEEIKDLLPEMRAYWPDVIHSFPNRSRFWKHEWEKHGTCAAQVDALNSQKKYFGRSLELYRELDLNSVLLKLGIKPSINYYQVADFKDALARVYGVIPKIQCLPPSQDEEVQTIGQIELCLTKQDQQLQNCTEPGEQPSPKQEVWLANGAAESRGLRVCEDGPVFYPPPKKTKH
# UniProt Q8IYW5, whole entry, looked up: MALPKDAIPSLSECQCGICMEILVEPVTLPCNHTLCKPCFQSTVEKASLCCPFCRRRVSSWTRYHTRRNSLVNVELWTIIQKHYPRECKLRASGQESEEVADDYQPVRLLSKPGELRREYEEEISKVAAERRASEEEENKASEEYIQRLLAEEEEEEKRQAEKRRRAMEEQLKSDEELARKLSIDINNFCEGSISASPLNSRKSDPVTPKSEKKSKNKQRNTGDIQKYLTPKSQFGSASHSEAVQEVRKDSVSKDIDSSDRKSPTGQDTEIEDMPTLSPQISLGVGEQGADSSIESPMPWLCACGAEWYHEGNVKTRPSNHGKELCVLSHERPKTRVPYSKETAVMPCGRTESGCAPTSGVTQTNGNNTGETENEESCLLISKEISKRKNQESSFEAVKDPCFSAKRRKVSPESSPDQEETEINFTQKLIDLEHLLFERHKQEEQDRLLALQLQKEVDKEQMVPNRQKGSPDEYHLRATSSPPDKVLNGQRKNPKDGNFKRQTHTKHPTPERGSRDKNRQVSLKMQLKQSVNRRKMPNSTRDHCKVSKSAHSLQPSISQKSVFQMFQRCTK
# UniProt P08134, whole entry, looked up: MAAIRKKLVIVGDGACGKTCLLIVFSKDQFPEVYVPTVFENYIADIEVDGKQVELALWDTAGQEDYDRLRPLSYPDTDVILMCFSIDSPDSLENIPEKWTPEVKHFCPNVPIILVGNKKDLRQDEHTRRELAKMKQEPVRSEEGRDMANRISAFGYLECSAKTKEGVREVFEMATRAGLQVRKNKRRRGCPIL
# UniProt Q9H9A7: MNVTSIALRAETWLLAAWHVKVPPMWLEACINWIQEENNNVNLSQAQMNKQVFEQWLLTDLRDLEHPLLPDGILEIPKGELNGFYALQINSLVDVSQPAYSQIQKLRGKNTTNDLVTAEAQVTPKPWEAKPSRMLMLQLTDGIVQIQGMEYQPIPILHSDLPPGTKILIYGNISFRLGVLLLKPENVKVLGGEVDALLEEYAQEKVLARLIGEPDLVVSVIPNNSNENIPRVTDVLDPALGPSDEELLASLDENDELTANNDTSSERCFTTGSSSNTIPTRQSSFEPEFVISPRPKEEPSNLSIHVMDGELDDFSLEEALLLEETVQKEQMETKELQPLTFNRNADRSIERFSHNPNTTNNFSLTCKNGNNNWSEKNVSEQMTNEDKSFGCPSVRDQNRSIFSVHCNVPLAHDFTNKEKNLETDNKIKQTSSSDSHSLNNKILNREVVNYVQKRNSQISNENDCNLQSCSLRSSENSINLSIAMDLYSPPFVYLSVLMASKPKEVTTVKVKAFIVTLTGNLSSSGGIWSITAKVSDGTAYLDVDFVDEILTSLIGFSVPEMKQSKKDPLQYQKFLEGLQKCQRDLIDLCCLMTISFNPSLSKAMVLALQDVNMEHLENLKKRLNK
# UniProt P13489: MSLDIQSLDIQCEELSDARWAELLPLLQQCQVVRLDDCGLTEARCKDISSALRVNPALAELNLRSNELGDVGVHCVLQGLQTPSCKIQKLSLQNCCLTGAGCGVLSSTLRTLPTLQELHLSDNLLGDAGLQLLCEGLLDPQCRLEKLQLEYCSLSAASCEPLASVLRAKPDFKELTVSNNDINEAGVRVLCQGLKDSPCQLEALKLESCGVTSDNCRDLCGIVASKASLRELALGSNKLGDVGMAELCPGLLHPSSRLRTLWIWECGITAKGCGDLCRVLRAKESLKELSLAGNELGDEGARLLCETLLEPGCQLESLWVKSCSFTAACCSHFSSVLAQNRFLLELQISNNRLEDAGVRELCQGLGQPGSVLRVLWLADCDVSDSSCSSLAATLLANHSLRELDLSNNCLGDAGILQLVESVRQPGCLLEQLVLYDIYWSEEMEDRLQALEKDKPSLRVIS
# UniProt Q96DM3: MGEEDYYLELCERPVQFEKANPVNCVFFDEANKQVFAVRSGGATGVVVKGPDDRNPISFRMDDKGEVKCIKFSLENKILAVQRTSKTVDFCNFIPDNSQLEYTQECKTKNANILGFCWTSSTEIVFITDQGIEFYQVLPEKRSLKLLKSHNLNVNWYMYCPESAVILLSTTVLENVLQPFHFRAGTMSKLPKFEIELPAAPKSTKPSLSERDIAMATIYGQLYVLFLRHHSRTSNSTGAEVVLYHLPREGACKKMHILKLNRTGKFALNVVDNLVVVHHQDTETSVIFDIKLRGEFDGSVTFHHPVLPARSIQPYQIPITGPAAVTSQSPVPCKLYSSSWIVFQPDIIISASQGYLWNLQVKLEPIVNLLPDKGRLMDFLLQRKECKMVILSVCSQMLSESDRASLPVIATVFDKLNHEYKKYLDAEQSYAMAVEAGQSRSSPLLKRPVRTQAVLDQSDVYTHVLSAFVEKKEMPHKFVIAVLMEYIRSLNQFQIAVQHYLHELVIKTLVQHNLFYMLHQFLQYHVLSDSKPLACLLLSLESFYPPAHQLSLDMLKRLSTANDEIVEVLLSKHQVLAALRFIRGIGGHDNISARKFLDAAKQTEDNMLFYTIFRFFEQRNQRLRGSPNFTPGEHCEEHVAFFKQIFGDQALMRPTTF
# UniProt Q96TC7: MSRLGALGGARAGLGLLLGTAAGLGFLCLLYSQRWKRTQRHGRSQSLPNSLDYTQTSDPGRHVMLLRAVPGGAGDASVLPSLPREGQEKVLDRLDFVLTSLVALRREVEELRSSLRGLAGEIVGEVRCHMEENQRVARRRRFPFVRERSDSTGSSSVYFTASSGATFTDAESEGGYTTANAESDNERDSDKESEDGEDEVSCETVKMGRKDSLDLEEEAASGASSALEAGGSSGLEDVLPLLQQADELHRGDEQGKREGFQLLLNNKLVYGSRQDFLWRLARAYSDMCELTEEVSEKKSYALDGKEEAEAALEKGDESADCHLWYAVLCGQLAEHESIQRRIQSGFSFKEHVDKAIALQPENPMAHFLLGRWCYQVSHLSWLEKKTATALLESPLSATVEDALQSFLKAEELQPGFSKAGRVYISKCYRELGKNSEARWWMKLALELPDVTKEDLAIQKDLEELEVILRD
# UniProt P15927: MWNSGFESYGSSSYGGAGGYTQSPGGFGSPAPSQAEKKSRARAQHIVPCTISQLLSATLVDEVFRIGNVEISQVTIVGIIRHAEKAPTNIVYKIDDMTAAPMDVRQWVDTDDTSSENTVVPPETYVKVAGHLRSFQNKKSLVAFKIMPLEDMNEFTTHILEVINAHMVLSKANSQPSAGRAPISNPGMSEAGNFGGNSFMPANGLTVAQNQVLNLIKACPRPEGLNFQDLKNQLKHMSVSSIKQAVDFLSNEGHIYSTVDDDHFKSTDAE
# UniProt Q969K3: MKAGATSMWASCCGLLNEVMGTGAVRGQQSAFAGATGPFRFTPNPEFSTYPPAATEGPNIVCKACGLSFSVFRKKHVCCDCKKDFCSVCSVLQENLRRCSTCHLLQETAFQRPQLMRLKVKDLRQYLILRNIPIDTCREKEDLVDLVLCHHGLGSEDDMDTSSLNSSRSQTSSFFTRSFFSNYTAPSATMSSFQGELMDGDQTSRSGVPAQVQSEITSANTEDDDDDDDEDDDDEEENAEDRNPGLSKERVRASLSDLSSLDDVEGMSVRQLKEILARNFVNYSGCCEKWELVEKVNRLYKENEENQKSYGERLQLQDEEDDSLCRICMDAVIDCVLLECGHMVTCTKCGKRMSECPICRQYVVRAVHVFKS
# The list shows a part of the results.
# Experiments:
# Assay in all cases: log2 fold change, soluble protein after heating vs DMSO (PISA); higher = thermal stabilisation; K562 lysate, 10 uM; active = over 0.2 and 3.5 SD of the protein, either way, in both replicates (recomputed)
# [1] = compound: CN1CC[C@H](c2c(O)cc(O)c3c(=O)cc(-c4ccccc4Cl)oc23)[C@H](O)C1 [alvocidib]
# Method in brief: (§1)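 Following dounce homogenisation of K562 pellets in PBS pH 7.4 with 1 mM MgCl2, crude extract at 1 mg/mL protein was incubated for 30 min with 10 μM compound. Aliquots were then heated for 3 min over 48°C-58°C and pooled, NP-40 was added to 0.5% at 4°C, and soluble protein was recovered as the supernatant at 21,000xg for 90 min. Channel-sum-equalised TMTpro 16plex LC-MS/MS quantified this protein. Each value, from duplicates, is a log-two fold change in thermal stability relative to solvent controls.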
# [2] = compound: CN1CCc2c(c3ccccc3n2Cc2ccc(C(=O)NO)cc2)C1 [Tubastatin A]
# Method in brief: as §1
# [3] = compound: CNC(=O)C1=CC=CC=C1NC2=NC(=NC=C2Cl)NC3=C(C=C(C=C3)N4CCOCC4)OC
# Method in brief: as §1
# [4] = compound: CNC(=O)c1ccc(Nc2ncc(C(F)(F)F)c(NCc3nccnc3N(C)S(C)(=O)=O)n2)cc1 [defactinib]
# Method in brief: as §1
# [5] = compound: CNc1nc(-c2ccc3c(N)n[nH]c3c2)cc(N2C[C@@H](C(=O)NC3CCCCC3)CC[C@H]2C)n1
# Method in brief: as §1
# [6] = compound: COC(=O)N[C@@H](C)CNc1nccc(-c2cn(C(C)C)nc2-c2cc(Cl)cc(NS(C)(=O)=O)c2F)n1 [encorafenib]
# Method in brief: as §1
# [7] = compound: COC(=O)[C@H](CCSC)NC(=O)C1=C(C=C(C=C1)NC[C@H](CS)N)C2=CC=CC=C2
# Method in brief: as §1
# [8] = compound: COc1cc(Nc2ncc3c(n2)-c2ccc(Cl)cc2C(c2c(F)cccc2OC)=NC3)ccc1C(=O)O [alisertib]
# Method in brief: as §1
# [9] = compound: COc1cc2nc(-c3cc(F)ccc3O)nc(N[C@@H]3CNC[C@H]3C(C)(C)O)c2cc1OC
# Method in brief: as §1
# [10] = compound: COc1cc2ncnc(Nc3ccc(F)c(Cl)c3)c2cc1OCCCN1CCOCC1 [gefitinib]
# Method in brief: as §1
Target,log2 fold change [1],log2 fold change [2],log2 fold change [3],log2 fold change [4],log2 fold change [5],log2 fold change [6],log2 fold change [7],log2 fold change [8],log2 fold change [9],log2 fold change [10]
RMDN1 (UniProt Q96DB5),inactive: 0.025,inactive: 0.014,inactive: -0.001,inactive: 0.024,inactive: -0.011,inactive: 0.003,inactive: -0.003,inactive: -0.022,inactive: -0.051,inactive: -0.059
RINT1 (UniProt Q6NUQ1),inactive: 0.041,inactive: -0.083,inactive: 0.011,inactive: 0.047,inactive: -0.072,inactive: 0.01,inactive: -0.017,inactive: -0.086,inactive: 0.065,inactive: 0.035
RIOK2 (UniProt Q9BVS4),inactive: -0.021,inactive: -0.098,active: 0.438,inactive: 0.105,inactive: 0.127,inactive: -0.025,inactive: 0.029,inactive: -0.005,inactive: -0.051,inactive: -0.011
RHOXF2 (UniProt Q9BQY4),inactive: 0.004,inactive: 0.017,inactive: 0.019,inactive: 0.013,inactive: 0.017,inactive: 0.063,inactive: -0.042,inactive: 0.049,inactive: 0.042,inactive: -0.017
RING1 (UniProt Q06587),inactive: 0.021,inactive: -0.057,inactive: -0.013,inactive: -0.008,inactive: 0.076,inactive: 0.01,inactive: -0.026,inactive: 0.012,inactive: 0.001,inactive: -0.066
RNASET2 (UniProt O00584),inactive: -0.033,inactive: 0.062,inactive: 0.002,inactive: -0.01,inactive: 0.04,inactive: -0.035,inactive: -0.014,inactive: -0.007,inactive: 0.004,inactive: 0.008
RNF168 (UniProt Q8IYW5),inactive: 0.037,inactive: -0.03,inactive: 0.068,inactive: -0.026,inactive: -0.03,inactive: -0.046,inactive: -0.102,inactive: -0.078,inactive: -0.043,inactive: 0.079
RHOC (UniProt P08134),inactive: -0.015,inactive: -0.026,inactive: 0.029,inactive: 0.004,inactive: -0.104,inactive: -0.018,inactive: 0.024,inactive: -0.014,inactive: 0.028,inactive: 0.004
RMI1 (UniProt Q9H9A7),inactive: -0.065,inactive: 0.109,inactive: -0.029,inactive: -0.037,inactive: 0.089,inactive: 0.022,inactive: 0.108,inactive: 0.157,inactive: -0.141,inactive: -0.049
RNH1 (UniProt P13489),inactive: -0.072,inactive: 0.037,inactive: -0.033,inactive: -0.026,inactive: 0.002,inactive: -0.009,inactive: 0,inactive: 0.006,inactive: 0.013,inactive: -0.09
RPL23 (UniProt P62829),inactive: -0.001,inactive: -0.004,inactive: -0.008,inactive: -0.024,inactive: 0.03,inactive: -0.017,inactive: 0.021,inactive: 0.025,inactive: 0.008,inactive: 0.007
RMC1 (UniProt Q96DM3),inactive: -0.041,inactive: -0.019,inactive: 0.019,inactive: 0.049,inactive: -0.019,inactive: 0.012,inactive: -0.023,inactive: 0,inactive: -0.001,inactive: 0.005
RMDN3 (UniProt Q96TC7),inactive: 0.03,inactive: -0.031,inactive: 0.02,inactive: 0.063,inactive: -0.086,inactive: 0.045,inactive: -0.246,inactive: 0.055,inactive: 0.014,inactive: 0.002
RPA2 isoform 3 (UniProt P15927),inactive: -0.018,inactive: 0.04,inactive: -0.008,inactive: -0.014,inactive: -0.02,inactive: -0.025,inactive: 0.016,inactive: -0.003,inactive: 0.007,inactive: -0.007
RNF34 isoform 2 (UniProt Q969K3),inactive: -0.027,inactive: 0.048,inactive: 0.044,inactive: 0.038,inactive: 0.119,inactive: 0.136,inactive: -0.098,inactive: 0.024,inactive: 0.071,inactive: -0.048

# In another format: results already given.
Target	log2 fold change [1]	log2 fold change [2]	log2 fold change [3]	log2 fold change [4]	log2 fold change [5]	log2 fold change [6]	log2 fold change [7]	log2 fold change [8]	log2 fold change [9]	log2 fold change [10]
RMDN3 (UniProt Q96TC7)	inactive: 0.03	inactive: -0.031	inactive: 0.02	inactive: 0.063	inactive: -0.086	inactive: 0.045	inactive: -0.246	inactive: 0.055	inactive: 0.014	inactive: 0.002
RNF34 isoform 2 (UniProt Q969K3)	inactive: -0.027	inactive: 0.048	inactive: 0.044	inactive: 0.038	inactive: 0.119	inactive: 0.136	inactive: -0.098	inactive: 0.024	inactive: 0.071	inactive: -0.048
